The test addresses RecQ-like DNA helicase BLM (Homo sapiens) (UniProt P54132). In words: qHTS Assay for Inhibitors of Bloom's syndrome helicase (BLM).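 Further: plate controls were vehicle for no effect and no enzyme for full effect; nearly all actives have a fitted effect of over 35% in size.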 Particulars: recombinant BLM DNA unwinding, fluorescence dequenching. The source says: Survival of cells and the faithful propagation of the genome depend on elaborate mechanisms of detecting and repairing DNA damage. Treatment of advanced cancer relies on radiation therapy or chemotherapy, which kill cancer cells by causing extensive DNA damage. It is often found, that cancer cells develop resistance to therapy through enhanced activity of DNA repair functions; this has led to an increased interest in developing drugs that interfere with DNA repair, which could sensitize cancer cells to conventional therapy.
This validation qHTS assay pertains to human BLM, which is important in resolving abnormal DNA structures formed during replication or homologous recombination. Shutting down the expression of BLM leads to chromosomal instability and higher radiation sensitivity in cultured cells.
The validation assay was a fluorescence quenching based kinetic qHTS for BLM Helicase DNA unwinding. The activity was measured as ATP-dependent separation of a 20-bp DNA duplex extended by 30-nt single-stranded tails (forked duplex). […] Strand separation results in an increase in the fluorescence of TAMRA (excitation 525 nm, emission 598 nm). […]
Three uL of reaction buffer (25 mM Tris-HCl (pH 8.0), 5 mM NaCl, 2 mM MgCl2, 1mM DTT, 0.01% Tween- 20, and 2.5 ug/ml poly(dI-dC), including enzyme (50 nM BLM), were dispensed into a 1536-well Greiner black assay plate via solenoid-valve based nanoliter dispensers. Compounds (23 nl each in columns 5-48) and control (23 nl each in column 2 as dose-response) were transferred via a Kalypsys pintool equipped with a 1536-pin array. The plates were incubated for 15 min at room temperature, and then 1 ul of substrates (200 nM DNA and 2 mM ATP, final concentrations) was added to start the reaction. The plate was transferred into a ViewLux high-throughput CCD imager where the reaction progress was measured in a discontinuous kinetic mode (two reads spaced 2 hours apart, with intermediate room temperature incubation of the covered assay plate) by using standard red-fluorescence optics (excitation filter 525 nm, emission filter 598 nm). […]
(In general: qHTS replaces the single test concentration by a dilution series.)

Chains of the proteins cited; added tags and fusions are not shown. Lines headed by an entry give the natural chain unless they say otherwise; changes in a name come on top.
UniProt P54132: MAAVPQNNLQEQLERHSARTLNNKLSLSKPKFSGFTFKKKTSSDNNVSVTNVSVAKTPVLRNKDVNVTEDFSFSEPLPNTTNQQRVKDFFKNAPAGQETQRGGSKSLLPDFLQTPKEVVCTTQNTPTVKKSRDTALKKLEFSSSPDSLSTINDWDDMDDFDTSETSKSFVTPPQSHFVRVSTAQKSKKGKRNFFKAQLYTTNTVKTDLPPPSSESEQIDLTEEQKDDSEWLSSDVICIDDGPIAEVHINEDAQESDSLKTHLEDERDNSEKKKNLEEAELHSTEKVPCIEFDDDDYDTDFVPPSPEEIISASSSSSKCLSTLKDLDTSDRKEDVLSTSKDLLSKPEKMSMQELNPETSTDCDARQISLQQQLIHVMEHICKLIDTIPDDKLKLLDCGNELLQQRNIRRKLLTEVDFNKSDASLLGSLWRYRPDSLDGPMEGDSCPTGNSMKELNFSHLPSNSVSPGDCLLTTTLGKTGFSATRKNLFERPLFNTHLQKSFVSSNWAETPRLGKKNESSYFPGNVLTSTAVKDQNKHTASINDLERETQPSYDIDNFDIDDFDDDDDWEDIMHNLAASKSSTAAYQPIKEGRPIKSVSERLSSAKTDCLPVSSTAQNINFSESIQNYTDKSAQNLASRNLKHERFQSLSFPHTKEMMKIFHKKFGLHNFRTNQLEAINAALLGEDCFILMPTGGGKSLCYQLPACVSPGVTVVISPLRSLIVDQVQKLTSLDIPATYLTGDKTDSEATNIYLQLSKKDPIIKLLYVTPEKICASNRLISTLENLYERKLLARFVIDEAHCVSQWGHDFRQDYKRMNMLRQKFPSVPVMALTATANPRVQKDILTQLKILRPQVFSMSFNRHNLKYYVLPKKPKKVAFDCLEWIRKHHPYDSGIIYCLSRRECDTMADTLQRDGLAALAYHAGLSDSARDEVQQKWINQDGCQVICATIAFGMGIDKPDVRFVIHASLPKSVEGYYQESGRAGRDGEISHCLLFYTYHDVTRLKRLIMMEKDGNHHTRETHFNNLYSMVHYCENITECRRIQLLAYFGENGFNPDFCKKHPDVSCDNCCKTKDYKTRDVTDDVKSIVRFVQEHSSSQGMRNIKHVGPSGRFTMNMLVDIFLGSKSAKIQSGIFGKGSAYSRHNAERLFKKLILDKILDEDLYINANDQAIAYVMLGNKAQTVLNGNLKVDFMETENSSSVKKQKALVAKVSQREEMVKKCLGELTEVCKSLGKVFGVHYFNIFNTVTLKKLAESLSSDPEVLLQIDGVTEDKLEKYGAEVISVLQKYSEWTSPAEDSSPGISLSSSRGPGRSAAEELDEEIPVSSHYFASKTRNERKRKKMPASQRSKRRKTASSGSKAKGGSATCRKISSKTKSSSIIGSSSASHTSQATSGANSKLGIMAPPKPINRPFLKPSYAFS

Shown are results outside the selection of hits, which stands elsewhere. Active and inactive are the calls of the source. The call rests on the fitted dose curve; in most records, active means well fitted inhibition curve with a large enough effect; inconclusive means small, poorly fitted or top-dose-only effect; inactive means flat fitted curve, though single readings scatter.

As for `CN1C2CCC1CC(OC(=O)C(O)c1ccccc1)C2` (stereo not drawn), where the note is “at 56.1 µM (top of the series)”, the activity change, negative = inhibition was inactive: -11.2%.
`CN1[C@@H]2CC[C@H]1CC(OC(=O)[C@@H](O)c1ccccc1)C2` (stereo partly drawn): the activity change, negative = inhibition runs as follows: (at 21.4 µM (top of the series)) inactive: -2.63%; (at 56.1 µM (top of the series)) inactive: -0.233%.

The values are drawn from PubChem BioAssay AID2528 (National Center for Advancing Translational Sciences (NCATS), 2010).
